Reference: publication PMC5717138
Where a chain is given by its changes, count along the chain named. In names and notes the source's numbering stands. These are yes or no findings as the source states them, for the method shown. Binding seen in cells or lysates may run through a third protein. Some results given as binding are weak or reduced against the parent protein; the word gives no strength. For some assays here: Sequences can lack the tags named with a protein.

Amino acid sequences for entries named in this document (tags omitted).
UniProt Q9NZJ0: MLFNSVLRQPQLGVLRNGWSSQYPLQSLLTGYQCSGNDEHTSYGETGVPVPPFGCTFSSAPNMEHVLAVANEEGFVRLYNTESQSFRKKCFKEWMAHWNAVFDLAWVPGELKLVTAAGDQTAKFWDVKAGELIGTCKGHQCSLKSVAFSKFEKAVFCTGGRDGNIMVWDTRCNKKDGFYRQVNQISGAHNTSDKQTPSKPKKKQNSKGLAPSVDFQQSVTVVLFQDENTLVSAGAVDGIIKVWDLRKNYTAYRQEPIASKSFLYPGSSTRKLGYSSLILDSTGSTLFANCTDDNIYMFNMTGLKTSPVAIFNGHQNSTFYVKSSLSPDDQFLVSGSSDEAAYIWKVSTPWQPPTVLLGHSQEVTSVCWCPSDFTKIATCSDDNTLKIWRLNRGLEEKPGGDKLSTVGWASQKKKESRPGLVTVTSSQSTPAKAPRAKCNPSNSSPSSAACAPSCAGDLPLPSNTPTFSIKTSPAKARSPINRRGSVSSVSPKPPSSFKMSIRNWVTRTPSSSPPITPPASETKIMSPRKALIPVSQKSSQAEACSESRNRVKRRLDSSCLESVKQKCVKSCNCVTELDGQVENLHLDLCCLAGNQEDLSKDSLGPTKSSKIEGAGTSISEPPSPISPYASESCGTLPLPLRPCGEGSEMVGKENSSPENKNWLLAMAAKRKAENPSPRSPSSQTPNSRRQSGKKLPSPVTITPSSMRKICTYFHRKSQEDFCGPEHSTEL
UniProt Q13619: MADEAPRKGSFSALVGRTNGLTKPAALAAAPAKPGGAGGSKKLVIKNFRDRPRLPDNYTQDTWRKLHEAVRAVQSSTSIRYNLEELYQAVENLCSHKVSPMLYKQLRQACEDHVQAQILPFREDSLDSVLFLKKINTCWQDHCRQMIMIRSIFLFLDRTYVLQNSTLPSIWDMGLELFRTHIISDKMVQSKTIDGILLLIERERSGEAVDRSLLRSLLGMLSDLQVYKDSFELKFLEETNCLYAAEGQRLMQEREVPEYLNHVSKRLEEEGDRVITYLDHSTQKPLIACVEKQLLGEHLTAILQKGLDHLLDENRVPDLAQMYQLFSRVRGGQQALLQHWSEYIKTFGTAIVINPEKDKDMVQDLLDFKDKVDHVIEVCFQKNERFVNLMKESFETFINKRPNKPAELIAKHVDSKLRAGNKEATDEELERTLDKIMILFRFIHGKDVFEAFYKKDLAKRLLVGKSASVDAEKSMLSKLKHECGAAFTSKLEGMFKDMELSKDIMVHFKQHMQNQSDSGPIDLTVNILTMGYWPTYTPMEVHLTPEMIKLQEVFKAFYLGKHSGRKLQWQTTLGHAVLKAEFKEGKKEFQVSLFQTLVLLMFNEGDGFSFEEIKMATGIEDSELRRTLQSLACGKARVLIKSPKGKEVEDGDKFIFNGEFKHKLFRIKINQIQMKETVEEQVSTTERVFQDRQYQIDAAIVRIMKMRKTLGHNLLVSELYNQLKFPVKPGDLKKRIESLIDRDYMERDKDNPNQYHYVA
UniProt Q16531: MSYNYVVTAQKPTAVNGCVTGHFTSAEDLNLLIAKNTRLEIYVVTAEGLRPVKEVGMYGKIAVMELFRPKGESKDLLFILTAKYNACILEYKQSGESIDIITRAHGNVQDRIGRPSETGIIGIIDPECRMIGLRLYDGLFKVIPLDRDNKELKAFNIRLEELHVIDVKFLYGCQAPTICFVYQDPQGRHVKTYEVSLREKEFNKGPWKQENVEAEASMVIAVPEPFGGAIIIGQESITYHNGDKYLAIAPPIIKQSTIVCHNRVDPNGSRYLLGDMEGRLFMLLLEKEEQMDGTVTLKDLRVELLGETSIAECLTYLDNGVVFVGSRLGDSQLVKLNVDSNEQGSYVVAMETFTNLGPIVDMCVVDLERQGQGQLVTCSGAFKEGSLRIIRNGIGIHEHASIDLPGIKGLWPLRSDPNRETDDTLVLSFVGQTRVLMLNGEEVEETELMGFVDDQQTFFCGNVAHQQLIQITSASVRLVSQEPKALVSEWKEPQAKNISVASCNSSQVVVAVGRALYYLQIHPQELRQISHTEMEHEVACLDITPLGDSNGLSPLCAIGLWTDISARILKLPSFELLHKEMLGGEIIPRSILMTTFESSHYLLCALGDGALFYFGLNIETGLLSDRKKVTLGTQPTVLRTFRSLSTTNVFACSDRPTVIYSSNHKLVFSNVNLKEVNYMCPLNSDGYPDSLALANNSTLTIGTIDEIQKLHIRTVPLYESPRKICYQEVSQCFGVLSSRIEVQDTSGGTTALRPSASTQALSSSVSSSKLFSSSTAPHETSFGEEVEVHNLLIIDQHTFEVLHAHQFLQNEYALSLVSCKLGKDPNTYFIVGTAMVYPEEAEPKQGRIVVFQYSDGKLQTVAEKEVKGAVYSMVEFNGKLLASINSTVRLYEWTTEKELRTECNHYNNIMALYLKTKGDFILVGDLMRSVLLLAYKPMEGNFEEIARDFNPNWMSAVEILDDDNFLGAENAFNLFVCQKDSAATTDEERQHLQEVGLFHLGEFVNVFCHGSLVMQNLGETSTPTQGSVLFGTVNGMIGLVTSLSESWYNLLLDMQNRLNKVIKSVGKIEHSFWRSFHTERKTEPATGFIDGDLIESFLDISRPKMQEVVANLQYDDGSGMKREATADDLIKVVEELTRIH
UniProt Q00987: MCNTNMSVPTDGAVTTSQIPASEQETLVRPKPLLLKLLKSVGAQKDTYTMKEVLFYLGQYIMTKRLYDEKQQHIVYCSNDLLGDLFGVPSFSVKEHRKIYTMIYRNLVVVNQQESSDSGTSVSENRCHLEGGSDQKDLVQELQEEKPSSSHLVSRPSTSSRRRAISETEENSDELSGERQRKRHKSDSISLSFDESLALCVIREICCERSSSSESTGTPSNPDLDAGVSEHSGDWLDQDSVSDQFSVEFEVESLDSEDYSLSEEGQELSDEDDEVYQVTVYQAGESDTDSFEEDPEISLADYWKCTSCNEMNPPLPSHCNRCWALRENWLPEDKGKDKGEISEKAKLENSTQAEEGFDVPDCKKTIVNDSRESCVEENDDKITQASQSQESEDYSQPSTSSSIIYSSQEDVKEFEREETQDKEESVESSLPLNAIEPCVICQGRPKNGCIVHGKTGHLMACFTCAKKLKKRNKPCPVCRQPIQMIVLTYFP

What was measured:
Flag-CDT2 = Flag-CDT2 (UniProt Q9NZJ0); experiment: co-IP; Flag-CDT2, Myc-Cul4A, Myc-DDB1 and Myc-RBX1 co-transfected into HEK293T; held on Flag M2 agarose beads, washed with HEPES buffer, eluted with Flag peptide
[1] = target: T1, GFP-Polη (wild type) (human) (UniProt Q9Y253); experiment: co-IP; Flag-DDB1 or Flag-CDT2 and GFP-Polη (WT, T457A) transfected into 293T cells; GFP-Trap A; blots with anti-GFP and anti-Flag
T1 sequence: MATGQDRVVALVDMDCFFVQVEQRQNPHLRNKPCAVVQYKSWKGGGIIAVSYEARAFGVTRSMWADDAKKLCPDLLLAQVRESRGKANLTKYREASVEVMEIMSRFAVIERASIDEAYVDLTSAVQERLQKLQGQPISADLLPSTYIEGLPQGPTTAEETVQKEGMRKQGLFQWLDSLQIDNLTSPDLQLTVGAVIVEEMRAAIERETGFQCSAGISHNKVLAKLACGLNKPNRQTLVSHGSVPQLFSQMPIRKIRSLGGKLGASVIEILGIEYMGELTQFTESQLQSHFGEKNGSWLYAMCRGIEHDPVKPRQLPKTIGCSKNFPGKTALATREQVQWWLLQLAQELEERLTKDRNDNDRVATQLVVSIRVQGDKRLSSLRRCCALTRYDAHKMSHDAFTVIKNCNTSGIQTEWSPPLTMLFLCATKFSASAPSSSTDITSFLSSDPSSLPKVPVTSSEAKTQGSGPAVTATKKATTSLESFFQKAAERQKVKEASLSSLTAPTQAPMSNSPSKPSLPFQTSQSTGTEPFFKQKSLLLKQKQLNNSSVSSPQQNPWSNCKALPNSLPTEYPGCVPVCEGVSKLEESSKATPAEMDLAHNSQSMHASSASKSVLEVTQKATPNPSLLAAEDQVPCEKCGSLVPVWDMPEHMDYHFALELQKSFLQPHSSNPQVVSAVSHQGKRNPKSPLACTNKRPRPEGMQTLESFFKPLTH

GFP-Polη T457A (human) [2] = target: T2, GFP-Polη T457A (human) (UniProt Q9Y253); experiment: as above
T2 sequence: T1 sequence with T457A

[3] = target: T1, GFP-Polη (wild type) (human); experiment: co-IP; Polη (WT or T457A) with MDM2 (Supplementary Fig. 6g); format not shown
GFP-Polη T457A (human) [4] = target: T2, GFP-Polη T457A (human); experiment: as above
Flag-UFD1 = target: T3, Flag-UFD1 (UniProt Q92890); experiment: co-IP; Flag-UFD1 or Flag-NPL4 and GFP-Polη (WT, T457A or 5A) transfected into 293T cells; anti-Flag M2 beads; blots with anti-GFP and anti-Flag
T3 sequence: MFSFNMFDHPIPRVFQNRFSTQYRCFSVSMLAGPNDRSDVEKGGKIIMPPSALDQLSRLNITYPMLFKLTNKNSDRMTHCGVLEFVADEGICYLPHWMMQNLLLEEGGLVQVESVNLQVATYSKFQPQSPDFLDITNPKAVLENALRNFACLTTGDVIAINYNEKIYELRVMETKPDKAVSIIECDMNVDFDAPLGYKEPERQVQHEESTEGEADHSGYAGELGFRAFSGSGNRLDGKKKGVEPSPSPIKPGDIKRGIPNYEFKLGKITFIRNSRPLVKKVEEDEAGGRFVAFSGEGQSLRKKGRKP

Flag-NPL4 = target: T4, Flag-NPL4 (UniProt Q8TAT6); experiment: as above
T4 sequence: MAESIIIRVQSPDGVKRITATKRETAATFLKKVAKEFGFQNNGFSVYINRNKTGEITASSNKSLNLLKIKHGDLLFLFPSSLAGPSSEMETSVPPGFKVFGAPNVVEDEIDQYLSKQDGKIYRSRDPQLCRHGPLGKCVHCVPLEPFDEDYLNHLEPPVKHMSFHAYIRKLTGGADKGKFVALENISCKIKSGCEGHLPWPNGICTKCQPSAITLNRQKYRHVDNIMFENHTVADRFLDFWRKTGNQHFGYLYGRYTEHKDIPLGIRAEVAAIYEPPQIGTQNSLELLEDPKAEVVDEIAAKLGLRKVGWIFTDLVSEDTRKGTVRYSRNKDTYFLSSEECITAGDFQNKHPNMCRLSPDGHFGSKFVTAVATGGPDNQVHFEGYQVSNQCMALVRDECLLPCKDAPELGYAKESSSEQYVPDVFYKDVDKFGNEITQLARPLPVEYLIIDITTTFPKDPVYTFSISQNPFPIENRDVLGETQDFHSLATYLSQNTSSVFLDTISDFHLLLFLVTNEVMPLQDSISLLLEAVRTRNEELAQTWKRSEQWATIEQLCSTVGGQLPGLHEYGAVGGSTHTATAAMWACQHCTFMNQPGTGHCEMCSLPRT

For Myc-Cul4A (from UniProt Q13619 1-759), the binding (Flag-CDT2) was “binds”.

Flag-DDB1 (from UniProt Q16531 1-1140) was tested, and the binding [1] was “binds” and the binding (GFP-Polη T457A (human) [2]) was “binds”.

For MDM2 (from UniProt Q00987 1-491), the binding [3] was “binds” and the binding (GFP-Polη T457A (human) [4]) was “binds”.

For Flag-CDT2 (from UniProt Q9NZJ0 1-730), the binding [1] was “binds” and the binding (GFP-Polη T457A (human) [2]) was “binds”.

In the case of Myc-DDB1 (from UniProt Q16531 1-1140), the binding (Flag-CDT2) is reported as “binds”.

B1: GFP-Polη-5A (T457A/S458A/S459A/S466A/T471A) (protein, UniProt Q9Y253 1-713)
chain: T1 sequence with T457A, S458A, S459A, S466A, T471A
In the case of B1, the binding (Flag-UFD1) is reported as “binds” and the binding (Flag-NPL4) is reported as “binds”.

B2: GFP-Polη (wild type) (protein, UniProt Q9Y253 1-713)
chain: T1 sequence
In the case of B2, the binding (Flag-UFD1) is reported as “binds” and the binding (Flag-NPL4) is reported as “binds”.

B3: GFP-Polη T457A (protein, UniProt Q9Y253 1-713)
chain: T1 sequence with T457A
B3 was tested, and the binding (Flag-UFD1) was “binds” and the binding (Flag-NPL4) was “binds”.
